Measurements reported in PubChem BioAssay AID743121 (NCATS, 2013)

- Purpose: 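Knock-downs that sensitise breast cancer cells to camptothecin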 (primary screen)
- System: MDA-MB-231 cells, a human breast cancer line
- Knock-down reagent: single siRNA against human genes, 20 nM siRNA (0.8 pmol per well)
- Time to read-out: 120 h (drug added 48 h after transfection, read 72 h later)
- Challenge: camptothecin 20 nM (about EC30) for 72 h; vehicle 0.1% DMSO in parallel plates
- Measurement: 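CellTiter-Glo ATP signal, scaled to control siRNA as percent viability; sensitisation given as log2 of untreated divided by camptothecin-treated viability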
- Direction: log2 vehicle/camptothecin viability: higher = stronger sensitisation to camptothecin; viability with camptothecin: higher = more viable cells
- Rule for the call: 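Active genes have an RSA gene-level p-value below 0.001, computed from the ratios of their separate siRNAs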
The deposit covers about 26,000 reagents; this is an unselected part. Over the whole deposit, 167 (0.63%) got an active call. 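Calls are per gene from RSA p-values that are not deposited; an individual active-marked siRNA can sensitise only weakly.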 A number with no mark means an inactive call. Reagents against one gene are numbered here. Not all columns of the deposit are shown.

target	reagent	log2 vehicle/camptothecin viability	viability with camptothecin (% of control)
FBN1	1	0.111	97.5
FBN1	2	-0.0207	106
FBN1	3	-0.359	98.8
FBN1	4	-0.356	70.8
UTRN	1	-0.0432	88.6
UTRN	2	-0.263	67.4
UTRN	3	0.289	25
UTRN	4	-0.273	103
TEX13A	1	0.822	26.5
TEX13A	2	-0.058	82.5
TEX13A	3	-0.226	74.7
TEX13A	4	-0.257	70.5
OR2H2	1	-0.411	95.6
OR2H2	2	0.254	46.8
OR2H2	3	0.195	64.6
OR2H2	4	-0.123	58.9
AQP2	1	-0.28	77.8
AQP2	2	-0.519	98.9
AQP2	3	-0.0516	69.4
PDIA3	1	-0.623	43.4
PDIA3	2	-0.266	24.9
PDIA3	3	-0.229	91.4
PDIA3	4	0.146	93
NME4	1	0.0474	92.4
NME4	2	0.659	42.6
NME4	3	-0.576	106
NME4	4	0.829	57.2
PSMA4	1	-0.357	5.8
PSMA4	2	-0.404	15.4
PSMA4	3	-0.313	12.7
LECT2	1	-0.0721	101
LECT2	2	-0.404	87.6
LECT2	3	-0.309	64.8
LECT2	4	0.315	80.8
PAMR1	1	-0.245	118
PAMR1	2	0.286	72.7
PAMR1	3	-0.303	137
PAMR1	4	-0.219	81.6
NLRP3	1	-0.166	54.4
NLRP3	2	-0.139	88.1
NLRP3	3	1.53	14.1
NLRP3	4	-0.476	97.5
PKHD1	1	-0.249	120
PKHD1	2	-0.28	102
PKHD1	3	-0.23	72.8
PKHD1	4	-0.362	53
XPNPEP3	1	0.661	31.7
XPNPEP3	2	-0.538	44.8
XPNPEP3	3	0.743	48.5
XPNPEP3	4	-0.319	73.4
MELK	1	-0.474	44.2
MELK	2	-0.0861	85.6
MELK	3	-0.314	111
MELK	4	-0.52	76.1
NXNL1	1	0.644	50.6
NXNL1	2	-0.213	80
NXNL1	3	-0.735	106
NXNL1	4	-0.282	67.4
PRND	1	-0.443	56.3
PRND	2	-0.657	25.1
PRND	3	0.0804	61.1
PRND	4	-0.389	117
IRAK3	1	-0.255	80.6
IRAK3	2	0.109	88.9
IRAK3	3	0.763	34.4
IRAK3	4	0.0275	78.6
TRPS1	1	-0.0544	101
TRPS1	2	-0.0827	94.4
TRPS1	3	-0.0163	99.2
TRPS1	4	0.109	65.1
PACSIN3	1	-0.292	94.1
PACSIN3	2	-0.387	116
PACSIN3	3	-0.237	72.4
PACSIN3	4	-0.197	91.9
SIRT2	1	-0.112	71
SIRT2	2	-0.212	92.4
SIRT2	3	-0.526	89.7
SIRT2	4	-0.254	93.4
TAMALIN	1	-0.39	84.6
TAMALIN	2	-0.252	57.1
TAMALIN	3	-0.0573	58
TAMALIN	4	-0.731	50.3
PER1	1	-0.0169	80.7
PER1	2	-0.155	79
PER1	3	-0.12	45.9
PER1	4	0.0497	23.7
HFE	1	-0.51	92.2
HFE	2	0.374	58.5
HFE	3	-0.088	72.7
HFE	4	-0.291	132

Already shown: an excerpt of the list.
target	reagent	log2 vehicle/camptothecin viability	viability with camptothecin (% of control)
NXNL1	2	-0.213	80
NXNL1	3	-0.735	106
NXNL1	4	-0.282	67.4
PRND	1	-0.443	56.3
PRND	2	-0.657	25.1
PRND	3	0.0804	61.1
PRND	4	-0.389	117
IRAK3	1	-0.255	80.6
IRAK3	2	0.109	88.9
IRAK3	3	0.763	34.4
IRAK3	4	0.0275	78.6
TRPS1	1	-0.0544	101
TRPS1	2	-0.0827	94.4
TRPS1	3	-0.0163	99.2
TRPS1	4	0.109	65.1
